Test results taken from publication PMC7906902.
Results are given in words; binding and its absence hold for the method and conditions named. Binding seen in cells or lysates may run through a third protein. Some binding calls cover weakened binding; strength is not graded here. Values belong to the molecule of their own block, whether it stands above or below them.

The chains behind the UniProt entries cited, without tags or fusion partners.
UniProt P25963: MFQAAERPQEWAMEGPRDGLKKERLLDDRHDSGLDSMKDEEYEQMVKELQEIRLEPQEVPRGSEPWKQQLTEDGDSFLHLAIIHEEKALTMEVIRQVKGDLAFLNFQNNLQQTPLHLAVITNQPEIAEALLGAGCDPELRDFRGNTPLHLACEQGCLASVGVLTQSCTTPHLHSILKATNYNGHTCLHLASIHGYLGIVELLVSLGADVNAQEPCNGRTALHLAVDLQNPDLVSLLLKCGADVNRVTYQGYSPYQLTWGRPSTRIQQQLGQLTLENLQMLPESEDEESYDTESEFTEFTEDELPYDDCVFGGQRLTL

What was measured:
[1] = molecular target: T1, Procollagen lysyl hydroxylase 1 (PLOD1) (human (endogenous in patient-derived GSCs)) (UniProt Q02809); experiment: co-IP; total cell lysates in RIPA lysis buffer with proteasome inhibitor; immunoprecipitated at 4 °C for 12 h with a rabbit monoclonal antibody against PLOD1 or a mouse monoclonal antibody against IκBα prebound to protein A-Sepharose 4B beads; isotype antibodies as controls; eluates analysed by western blotting
T1 sequence: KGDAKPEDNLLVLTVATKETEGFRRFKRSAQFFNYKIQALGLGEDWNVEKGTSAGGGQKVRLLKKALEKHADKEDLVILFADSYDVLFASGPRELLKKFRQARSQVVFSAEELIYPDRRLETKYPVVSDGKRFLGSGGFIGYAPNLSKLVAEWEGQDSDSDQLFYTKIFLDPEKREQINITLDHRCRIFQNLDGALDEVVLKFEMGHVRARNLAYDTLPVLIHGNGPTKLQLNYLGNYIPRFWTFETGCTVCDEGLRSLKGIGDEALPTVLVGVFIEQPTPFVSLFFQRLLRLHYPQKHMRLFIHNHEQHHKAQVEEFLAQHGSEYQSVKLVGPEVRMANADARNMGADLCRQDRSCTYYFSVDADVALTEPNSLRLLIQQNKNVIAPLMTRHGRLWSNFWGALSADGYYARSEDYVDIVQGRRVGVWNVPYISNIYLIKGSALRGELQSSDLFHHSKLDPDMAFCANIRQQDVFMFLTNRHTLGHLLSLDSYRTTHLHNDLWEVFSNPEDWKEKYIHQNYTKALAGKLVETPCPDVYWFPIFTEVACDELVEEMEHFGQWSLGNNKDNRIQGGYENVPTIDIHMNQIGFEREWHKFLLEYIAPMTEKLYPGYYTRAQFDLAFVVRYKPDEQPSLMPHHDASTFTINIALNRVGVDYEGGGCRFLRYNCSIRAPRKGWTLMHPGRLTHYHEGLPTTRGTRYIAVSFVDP

[2] = molecular target: IκBα (human (endogenous in patient-derived GSCs)) (UniProt P25963); experiment: as above

- binding [1]: binds
Molecule: IκBα (from UniProt P25963 1-317)

- binding [2]: binds
B1: Procollagen lysyl hydroxylase 1 (PLOD1) (enzyme, UniProt Q02809 19-727)
chain: T1 sequence
